The text below walks through data of article doi:10.1101/2025.07.28.25332029.

No constants are given. Whether binding was seen depends on the method and setting. Binding seen in cells or lysates may run through a third protein. Some results given as binding are weak or reduced against the parent protein; the word gives no strength.

For this experiment, the target named is T1, CIDEC short isoform (CIDEC-S) (human), Q96AQ7.
T1 chain: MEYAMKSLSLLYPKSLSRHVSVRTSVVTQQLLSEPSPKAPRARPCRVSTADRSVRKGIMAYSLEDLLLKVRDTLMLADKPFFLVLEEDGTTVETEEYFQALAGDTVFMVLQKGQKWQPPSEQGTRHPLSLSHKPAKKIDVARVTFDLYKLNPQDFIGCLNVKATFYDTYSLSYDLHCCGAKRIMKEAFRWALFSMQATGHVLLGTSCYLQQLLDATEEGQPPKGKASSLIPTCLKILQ
The experiment can be described thus: co-IP. The following applies: remark: other sources report otherwise.

B1: CIDEC short isoform (CIDEC-S), Q96AQ7-1 1-238 (protein)
chain: T1 chain
With B1, the binding entry is reported as “binds”.
